# Measured values reported in US12583915.
# Protein sequences, listed by entry. Tags and fused reporters are not part of them. Lines headed by an entry give the natural chain unless they say otherwise; changes in a name come on top.
# UniProt O95816: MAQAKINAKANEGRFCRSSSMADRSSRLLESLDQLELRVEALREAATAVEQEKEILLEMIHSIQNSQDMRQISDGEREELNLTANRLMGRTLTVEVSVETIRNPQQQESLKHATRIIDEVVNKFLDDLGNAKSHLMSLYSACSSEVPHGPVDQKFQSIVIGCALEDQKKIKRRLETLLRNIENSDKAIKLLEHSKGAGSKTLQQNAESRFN
# Results are given in words; binding and its absence hold for the method and conditions named. Some entries that bind do so weakly or less than the wild type.
# B1: 2A11 antibody (antibody, V domains shown)
# VH: QVQLQQPGAELVRPGASVTLSCKASGYTFTDYEMHWVKQTPVHGLEWIGIIDPETGGTAYNQKFKGKATLTADKSSSTAYMELRSLTSEDSAVYYCTRGKFYYSGRDYAMDYWGQGTSVTVSS
# VL: DVLMTQTPLSLPVSLGDQASISCRSSQSIVHSNGNTYLEWYLQKPGQSPKLLIYKVSNRFSGVPDRFSGSGSGTDFTLKISRVEAEDLGVYFCFQGSQVPPTFGGGTKLEIK
# B2: 3G8 antibody (antibody, V domains shown)
# VH: QIQLVQSGPELKKPGETVKISCKASGYSFTKYGMNWVKQAPGKDIKWMGWINTNTGEATYGEEVKGRFAFSLETSASTAYLQINNLKNEDTATYFCARLGLRYLDYWGQGTTLTVSS
# VL: DIVMTQSPASLVVSLGQRATISCRASKSVSTSDYSYMHWYQQKPGQPPKVLIYLASNLESGVPARFSGSGSGTDFTLNIHPVEEEDAATYYCQHNRELPPTFGAGTKLELK
# B3: 9B12 antibody (antibody, V domains shown)
# VH: QVQLQQSGAELVRPGTSVKVSCKASGYAFTNYMIEWIKQRPGQGLEWIGVINPGSGGSYYNEKVKGKATLTADRSSSTAYMQFSSLTADDSGVYFCRIYGNYKGYFDHWGQGTTLTVSS
# VL: DIVMTQSPSSMYASLGERVTITCKASQDMNSYLSWFQQKPGKSPKTLIYRANRLVDGVPSRFSGSGSGQDYSLTISSLEYEDMGIYYCLQNDEFPFTFGSGTKLEMK
# B4: 4C2 antibody (antibody, V domains shown)
# VH: QVQLQQPGAELVRPGASVTLSCKASGYTFTDYEMHWVKQTPVHGLEWIGIIDPETGATAYNQKFKGKATLTADKSSSTAYMELRSLTSEDSAVYYCTRGKFYYSGRDYAMDYWGQGTSVTVSS
# VL: DVLMTQTPLSLPVSLGDQASISCRSSQSIVHSNGNTYLEWYLQKPGQSPKLLFYKVSNRFSGVPDRFSGSGSGTDFTLKISRVEAEDLGVYFCFQGSQVPPTFGGGTKLEIK
# B5: 8C4 antibody (antibody, V domains shown)
# VH: QVQLQQPGAELVRPGASVTLSCKASGYTFTDYEMHWVKQTPVHGLEWIGIIDPETAGTAYNQKFKGKATLTADKSSSTAYMELRSLTSEDSAVYYCTRGKFYYSGRDYAMDYWGQGTSVTVSS
# VL: DVLMTQTPLSLPVSLGDQASISCRSSQSIVHSNGNTYLEWYLQKPGQSPKLLFYKVSNRFSGVPDRFSGSGSGTDFTLKISRVEAEDLGVYFCFQGSQVPPTFGGGTKLEIK
# B6: 9B3 antibody (antibody, V domains shown)
# VH: EVQLQQSGAELVRPGTSVKVSCKASGYAFTNYMIEWIKQRPGQGLEWIGVINPGSGGSYYNEKVKGKATLTADKSSSTAYMQFSSLTADDSAVYFCRIYGNYKGYFDYWGQGTTLTVSS
# VL: DIVMTQSPSSMYASLGERVTITCKASQDINSYLSWFQQKPGKSPKTLIYRANRLVDGVPSRFSGSGSGQDYSLTISSLEYEDMGIYYCLQNDEFPFTFGSGTKLEIK
# Tests used:
# [1] = target: human His-tagging BAG2 recombinant protein (human) (UniProt O95816); assay: sandwich ELISA, standard curve for BAG2 protein; in combination 2A11-3F12
# [2] = target: human His-tagging BAG2 recombinant protein (human) (UniProt O95816); assay: sandwich ELISA, standard curve for BAG2 protein; in the combinations named
# [3] = target: human His-tagging BAG2 recombinant protein (human) (UniProt O95816); assay: sandwich ELISA, standard curve for BAG2 protein; in combination 9B12-3G8
# [4] = target: human His-tagging BAG2 recombinant protein (human) (UniProt O95816); assay: sandwich ELISA, standard curve for BAG2 protein; in combination 3G8-8C4
# [5] = target: human His-tagging BAG2 recombinant protein (human) (UniProt O95816); assay: sandwich ELISA, standard curve for BAG2 protein; in combination 9B3-3F12
binder,measurement,setting,value
B1,binding,[1],binds
B2,binding,[2],binds
B3,binding,[3],binds
B4,binding,[2],binds
B5,binding,[4],binds
B6,binding,[5],binds
